Measurements: publication PMC6562204 (Bioorganic & Medicinal Chemistry, 2018)

System: CK2α
Settings: co-crystal / soak with CK2α

| Structure (SMILES) | binding site observed in crystal structure |
| --- | --- |
| NCCc1ccc(Cl)c(Cl)c1 [NMR154L] | binding in the interface pocket as well as the ATP site and the αD site |
| NCc1cc(Cl)c(Cl)c(-c2ccc[nH]2)c1 [Compound 6] | bound exclusively at the interface |
